Test results published in the supplement of paper PMC3741180, “A Novel High Throughput Biochemical Assay to Evaluate the HuR Protein-RNA Complex Formation” (PLoS ONE, 2013).
Some of the results follow. This data set is noisy: repeats of one test often differ as much as different tests do.

Sequences of proteins named here, by UniProt entry; tags and fusion partners are left off.
UniProt Q15717, whole entry: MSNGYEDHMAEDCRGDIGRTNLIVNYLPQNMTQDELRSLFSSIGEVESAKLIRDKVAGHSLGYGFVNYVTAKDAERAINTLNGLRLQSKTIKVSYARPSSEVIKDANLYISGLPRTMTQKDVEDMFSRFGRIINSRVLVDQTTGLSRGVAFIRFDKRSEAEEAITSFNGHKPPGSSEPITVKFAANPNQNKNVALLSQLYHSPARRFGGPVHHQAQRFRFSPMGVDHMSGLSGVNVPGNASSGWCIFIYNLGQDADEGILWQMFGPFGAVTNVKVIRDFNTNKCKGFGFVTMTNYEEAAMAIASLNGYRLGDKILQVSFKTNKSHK

These molecules were tested against HuR (ELAVL1) - TNFalpha ARE RNA complex (UniProt Q15717) (assay: AlphaScreen HuR-RNA complex signal Z-score relative to positive (Bi-TNF, DMSO) controls (Z-score (SD units of positive control)); higher = more complex signal). Conditions: screen stage: primary screen; compound concentration: 25 nM.

Compound	AlphaScreen HuR-RNA complex signal Z-score
Cc1noc(NS(=O)(=O)c2ccc(N)cc2)c1C	24.3
CC1=C(CC(=O)O)c2cc(F)ccc2/C1=C\c1ccc([S+](C)[O-])cc1 (stereo not drawn)	9.61
Cc1cc(-n2c(=O)[nH]c(=O)n(C)c2=O)ccc1Oc1ccc(SC(F)(F)F)cc1	1.85
CC(C)CCC[C@@H](C)[C@H]1CC[C@H]2[C@@H]3C(=O)C=C4C[C@@H](O)CC[C@]4(C)[C@H]3CC[C@]12C	-1.78
Cc1ccccc1N1C(=O)c2cc(S(N)(=O)=O)c(Cl)cc2NC1C (stereo not drawn)	-0.61
CO[C@H]1[C@H](O)[C@@H](O)[C@H](O)[C@H](O)[C@H]1O	1.19
COc1ccc(-c2coc3c(OC)c(OC)cc(O)c3c2=O)cc1	1.99
COc1ccc2c(c1)OCC(Cc1ccc(OC)c(OC(C)=O)c1)C2=O (stereo not drawn)	1.74
OCCOCCN1CCN(C(c2ccccc2)c2ccc(Cl)cc2)CC1 (stereo not drawn)	-1.54
CC(CCC(=O)O)[C@H]1CCC2C3CC[C@@H]4CC(=O)CC[C@]4(C)C3C=C[C@@]21C (stereo partly drawn)	1.51
CC(=O)O[C@H]1C[C@@H](OC(C)=O)C(C)(C)C2C[C@@H](O)[C@]3(C)C(CC[C@@]4(C)[C@H](c5ccoc5)OC(=O)[C@H]5O[C@]543)[C@]21C (stereo partly drawn)	-0.983
O=C(O)c1cc(O)c(=O)c2c(O)c(O)ccc2c1	2.7
CC(=O)Nc1ccc(O)cc1	0.315
CC(=O)Oc1c(C)c(C)c2c(c1C)CCC(C)(CCCC(C)CCCC(C)CCCC(C)C)O2 (stereo not drawn) [alpha-TOCHOPHERYL ACETATE]	0.378
C=CCSCC(N)C(=O)O (stereo not drawn)	2.56
COC(=O)[C@@H]1OC(=O)C2OC23[C@@]1(C)CCC1[C@]2(C)C(C[C@H](O)[C@]13C)C(C)(C)[C@H](OC(C)=O)C[C@@H]2OC(C)=O (stereo partly drawn) [7beta-HYDROXY-7-DESACETOXYKHIVORINIC ACID, METHYL ESTER]	2.13
COC(=O)C(C)c1ccc(C(=O)c2cccs2)cc1 (stereo not drawn)	2.13
COc1ccc2[nH]c([S+]([O-])Cc3ncc(C)c(OC)c3C)nc2c1 (stereo not drawn)	1.15
CCCCC(CC)CN=C(N)N=C(N)NCCCCCCNC(N)=NC(N)=NCC(CC)CCCC (stereo not drawn)	2.78
CN(C)[C@@H]1C(O)=C(C(N)=O)C(=O)[C@@]2(O)C(O)=C3C(=O)c4c(O)ccc(Cl)c4[C@@](C)(O)[C@H]3C[C@@H]12	-3.62
O=C1OC2(c3ccc(O)cc3Oc3cc(O)ccc32)c2ccccc21	0.868
CC(=O)OCC1=C(C(=O)O)N2C(=O)[C@@H](NC(=O)CSc3ccncc3)[C@H]2SC1	-3.52
C[C@]12CC[C@@H]3c4ccc(O)cc4CC[C@H]3[C@@H]1CCC2=O	-3.2
CC(=O)OCC(=O)[C@@]1(O)CC[C@H]2[C@@H]3C[C@H](C)C4=CC(=O)C=C[C@]4(C)[C@H]3[C@@H](O)C[C@@]21C [6alpha-METHYLPREDNISOLONE ACETATE]	1.54

Compound	AlphaScreen HuR-RNA complex signal Z-score
COc1cnc(NS(=O)(=O)c2ccc(N)cc2)nc1	1.16
O=C(O)CCC(=O)Nc1ccc(S(=O)(=O)Nc2nccs2)cc1	1.37
Cc1cccc(CN2CCN(C(c3ccccc3)c3ccc(Cl)cc3)CC2)c1 (stereo not drawn)	-0.578
O=c1c2cc(O)c(O)cc2oc2cc(O)c([C@@H]3O[C@H](CO)[C@@H](O)[C@H](O)[C@H]3O)c(O)c12	0.338
C=C1C[C@]23C[C@@]1(O)CC[C@H]2[C@@]12C=C[C@H](O)[C@@](C)(C(=O)O1)[C@H]2[C@@H]3C(=O)O	1.06
COc1ccc(-c2cc(=O)c3c(O)cc(O[C@@H]4O[C@H](CO[C@@H]5O[C@@H](C)[C@H](O)[C@@H](O)[C@H]5O)[C@@H](O)[C@H](O)[C@H]4O)cc3o2)cc1O	0.574
COC(=O)C[C@H]1C(C)(C)[C@@H](O)[C@@H]2CC3=C4CC(O)O[C@@H](c5ccoc5)[C@]4(C)CCC3[C@@]1(C)C2=O (stereo partly drawn) [3,16-DIDEOXYMEXICANOLIDE-3beta-DIOL]	0.289
NC(=O)NC(=O)Cc1ccccc1	8.06
COc1cc(C)c(C(=O)Oc2cc(C)c(C(=O)O)c(O)c2C)c(O)c1C=O	0.636
c1ccc2[nH]c(-c3cscn3)nc2c1	18.9
OC[C@@H](O)[C@@H](O[C@@H]1O[C@H](CO)[C@H](O)[C@H](O)[C@H]1O)[C@H](O)[C@@H](O)CO	-4.58
CN1[C@@H](CC(=O)c2ccccc2)CCC[C@H]1C[C@H](O)c1ccccc1	1.4
C=C1C(=O)O[C@@H]2C[C@@]3(C)CCC[C@H](C)C3=C[C@H]12	0.57
COc1ccc(C(=O)/C=C/c2ccccc2)cc1	0.587
CNCCC(Oc1ccc(C(F)(F)F)cc1)c1ccccc1 (stereo not drawn)	1.37
CCCCCCCCCCCCC[N+](C)(C)Cc1ccccc1	0.476
O=S(=O)(O)CCS	1.73
CCn1cc(C(=O)O)c(=O)c2cnc(N3CCCC3)nc21	-3.88
CC(C)(C)NC[C@H](O)c1ccc(O)c(CO)c1	3.1
CCCCNC(=O)NS(=O)(=O)c1ccc(C)cc1	-0.675
O=C(O)c1cc(-c2ccc(F)cc2F)ccc1O	-6.16
COc1ccc(-c2oc3ccccc3c(=O)c2O)cc1OC	1.94
CC(=O)[C@H]1CC[C@H]2[C@@H]3C[C@H](C)C4=CC(=O)CC[C@]4(C)[C@H]3[C@@H](O)C[C@]12C	2.03
COC(=O)c1c(C)cc(O)cc1O	1.04

Compound	AlphaScreen HuR-RNA complex signal Z-score
CC1(C)NC(=O)N(c2ccc([N+](=O)[O-])c(C(F)(F)F)c2)C1=O	1.2
CCCCCCc1ccc(O)cc1O	-2.48
COC(=O)[C@@H]1[C@H]2C[C@H]3c4[nH]c5ccccc5c4CCN3C[C@@H]2CC[C@@H]1O	-0.321
C=C(C)[C@@H]1CC=C(C(=O)O)CC1	-0.246
C[C@]12C=CC(=O)C=C1CC[C@@H]1[C@@H]2[C@@H](O)C[C@@]2(C)[C@H]1CC[C@]2(O)C(=O)COC(=O)CCC(=O)O	1.12
COC(=O)C[C@H]1C(C)(C)C(=O)[C@@H]2CC3=C4CC(=O)O[C@@H](c5ccoc5)[C@]4(C)CC[C@@H]3[C@@]1(C)C2=O	1.78
COc1ccc(C(=O)CC(=O)O)c2c1C=CC(C)(C)O2	0.486
CC(C)=CCC[C@](C)(O)C1CC=C(C)CC1 (stereo partly drawn)	2.37
Sc1nc2ccccc2s1	2.4
COc1ccc2cc1Oc1ccc(cc1)C[C@H]1c3cc(c(OC)cc3CCN1C)Oc1c(OC)c(OC)cc3c1[C@H](C2)N(C)CC3	-3.07
CCS(=O)(=O)CCn1c([N+](=O)[O-])cnc1C	0.34
COc1cc(OC)c2c(c1)OC(c1ccccc1)CC2=O (stereo not drawn)	0.201
CCCCOc1cc(C(=O)NCCN(CC)CC)c2ccccc2n1	0.709
C[C@@]12C[C@@]3(O)O[C@@H](O1)[C@]1(COC(=O)c4ccccc4)[C@H]3C[C@@]12O[C@@H]1O[C@H](CO)[C@@H](O)[C@H](O)[C@H]1O	-0.295
O=[N+]([O-])c1cccc2c(Br)[nH]nc12	2.52
NC1(C(=O)O)CCC1	0.873
N=C(N)NC(=O)c1nc(Cl)c(N)nc1N	0.31
CC(=O)O[C@H]1CC[C@]2(C)C(C[C@@H](OC(C)=O)[C@]3(C)C4=CC(=O)O[C@H](c5ccoc5)[C@@]4(C)CCC23)C1(C)C (stereo partly drawn) [3-DEOXO-3beta-ACETOXYDEOXYDIHYDROGEDUNIN]	1.28
CCOc1ccc(C(=O)c2ccc(OC)c(O)c2O)cc1	1.95
CCCCC1=NC2(CCCC2)C(=O)N1Cc1ccc(-c2ccccc2-c2nnn[nH]2)cc1	0.23
CCCCOC(=O)c1ccc(N)cc1	-0.892
O=C(Nc1ccc(C(=O)O)c(O)c1)c1ccccc1	0.406
CCC(CCC(C)C1CCC2C3CCC4CC(O)CCC4(C)C3CCC12C)C(C)C (stereo not drawn)	2.53
NC(=O)c1ncn([C@@H]2O[C@H](CO)[C@@H](O)[C@H]2O)n1	1.32

Rewritten as labelled records: 4 of the compounds above
CCS(=O)(=O)CCn1c([N+](=O)[O-])cnc1C
  AlphaScreen HuR-RNA complex signal Z-score: 0.34
COc1cc(OC)c2c(c1)OC(c1ccccc1)CC2=O (stereo not drawn)
  AlphaScreen HuR-RNA complex signal Z-score: 0.201
CCCCOc1cc(C(=O)NCCN(CC)CC)c2ccccc2n1
  AlphaScreen HuR-RNA complex signal Z-score: 0.709
C[C@@]12C[C@@]3(O)O[C@@H](O1)[C@]1(COC(=O)c4ccccc4)[C@H]3C[C@@]12O[C@@H]1O[C@H](CO)[C@@H](O)[C@H](O)[C@H]1O
  AlphaScreen HuR-RNA complex signal Z-score: -0.295

Continuation:

Compound	AlphaScreen HuR-RNA complex signal Z-score
CC1=CC2C(C(C)C)CCC(C)(O)C2CC1 (stereo not drawn)	2.04
C=NC(C(=O)NC1C(=O)N2C1SC(C)(C)C2C(=O)O)c1ccccc1 (stereo not drawn)	2.69
NS(=O)(=O)c1cc2c(cc1Cl)N=CNS2(=O)=O	-3.57
CNS(=O)(=O)Cc1ccc2[nH]cc(CCN(C)C)c2c1	-1.98
O=c1c(O)c(-c2ccc(O)c(O)c2)oc2cc(O)ccc12	0.31
C[C@H](N)C(=O)NC(Cc1ccccc1)C(=O)O (mixture of isomers)	1.74
CN[C@H](CC(C)C)C(=O)N[C@H]1C(=O)N[C@@H](CC(N)=O)C(=O)N[C@H]2C(=O)N[C@H]3C(=O)N[C@H](C(=O)N[C@H](C(=O)O)c4cc(O)cc(O)c4-c4cc3ccc4O)[C@H](O)c3ccc(c(Cl)c3)Oc3cc2cc(c3O[C@@H]2O[C@H](CO)[C@@H](O)[C@H](O)[C@H]2O[C@H]2C[C@](C)(N)[C@H](O)[C@H](C)O2)Oc2ccc(cc2Cl)[C@H]1O	-1.41
Cc1cc(C2CCCCC2)n(O)c(=O)c1	-3.47
CC(C)(N=NC(C)(C)C(=N)N)C(=N)N	2.06
O=C(O)c1cc2cc(Cl)ccc2[nH]1	2.06
CC(=O)CC(=O)CCC(=O)O	2.76
O=C(O)c1cc(=O)c2ccccc2o1	2.36
COc1ccc2oc(-c3ccccc3)c(OC)c(=O)c2c1	0.585
COc1ccc2ccc(=O)oc2c1	1.58
NS(=O)(=O)c1cc(C(=O)O)c(NCc2ccco2)cc1Cl	-5.92
CC(=O)Oc1cc(C)c2c(c1C(OC(C)=O)OC(C)=O)Oc1c(c(C)c(OC(C)=O)c3c1C(OC(C)=O)OC3=O)OC2=O (stereo not drawn)	2.16
C[C@]12CC[C@H]3C(=CCc4cc(O)ccc43)[C@@H]1CCC2=O	1.66
C[C@]12C=CC(=O)C=C1CC[C@@H]1[C@@H]2[C@@H](O)C[C@@]2(C)[C@H]1CC[C@]2(O)C(=O)COP(=O)(O)O	1.56
CCCCCC/C=C\CCCCCCCc1cccc(O)c1C(=O)O	1.63
N=C(N)N	2.85
Cc1c(C(N)=O)cc([N+](=O)[O-])cc1[N+](=O)[O-]	2.3
